Laboratory results reported in publication PMC5656663.
These are yes or no findings as the source states them, for the method shown. In cells and extracts the contact can be indirect. Some results given as binding are weak or reduced against the parent protein; the word gives no strength.

The chains behind the UniProt entries cited, without tags or fusion partners. Where a name states a change or a piece, a line headed by the entry shows the natural chain unless it says otherwise. A line that says so, or that is headed by a name, gives the form on record, which may keep a tag or linker. Residues count along the entry.
UniProt P63165, residues 1-97: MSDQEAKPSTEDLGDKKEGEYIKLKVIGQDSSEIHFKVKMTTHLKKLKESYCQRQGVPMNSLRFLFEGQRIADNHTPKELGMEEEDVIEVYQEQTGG
UniProt P19525: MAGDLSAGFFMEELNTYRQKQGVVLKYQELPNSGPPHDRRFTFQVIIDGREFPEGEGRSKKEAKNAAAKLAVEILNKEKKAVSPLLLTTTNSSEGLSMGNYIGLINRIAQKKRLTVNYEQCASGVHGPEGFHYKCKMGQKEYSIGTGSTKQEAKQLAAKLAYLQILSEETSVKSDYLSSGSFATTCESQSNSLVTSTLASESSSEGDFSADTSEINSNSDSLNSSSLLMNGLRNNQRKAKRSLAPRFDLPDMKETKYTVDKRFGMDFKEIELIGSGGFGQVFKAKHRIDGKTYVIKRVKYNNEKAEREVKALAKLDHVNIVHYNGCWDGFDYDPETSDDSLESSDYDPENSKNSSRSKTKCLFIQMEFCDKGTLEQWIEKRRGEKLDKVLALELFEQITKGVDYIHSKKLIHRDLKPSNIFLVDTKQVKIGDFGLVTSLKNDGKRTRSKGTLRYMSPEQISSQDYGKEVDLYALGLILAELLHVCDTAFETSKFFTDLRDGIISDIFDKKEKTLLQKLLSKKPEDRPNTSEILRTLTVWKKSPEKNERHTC
PKR-SIM163, PKR mutant in the SIM-163, in vitro-translated (P19525, form named): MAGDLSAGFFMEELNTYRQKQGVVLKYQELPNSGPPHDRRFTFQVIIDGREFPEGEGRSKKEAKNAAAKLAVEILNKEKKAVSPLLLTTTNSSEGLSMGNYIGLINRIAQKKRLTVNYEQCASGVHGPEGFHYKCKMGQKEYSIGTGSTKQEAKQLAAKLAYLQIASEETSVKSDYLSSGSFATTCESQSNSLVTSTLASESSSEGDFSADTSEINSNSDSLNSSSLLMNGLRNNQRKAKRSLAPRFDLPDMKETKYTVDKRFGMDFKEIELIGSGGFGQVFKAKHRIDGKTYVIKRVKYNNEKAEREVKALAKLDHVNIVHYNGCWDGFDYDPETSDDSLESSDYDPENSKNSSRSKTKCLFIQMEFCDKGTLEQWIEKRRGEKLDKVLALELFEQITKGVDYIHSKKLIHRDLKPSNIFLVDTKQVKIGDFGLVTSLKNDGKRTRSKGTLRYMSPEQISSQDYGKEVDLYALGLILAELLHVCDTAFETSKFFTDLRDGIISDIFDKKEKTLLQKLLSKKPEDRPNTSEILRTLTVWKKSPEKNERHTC
PKR-SIM102, PKR mutant in the SIM-102, in vitro-translated (P19525, form named): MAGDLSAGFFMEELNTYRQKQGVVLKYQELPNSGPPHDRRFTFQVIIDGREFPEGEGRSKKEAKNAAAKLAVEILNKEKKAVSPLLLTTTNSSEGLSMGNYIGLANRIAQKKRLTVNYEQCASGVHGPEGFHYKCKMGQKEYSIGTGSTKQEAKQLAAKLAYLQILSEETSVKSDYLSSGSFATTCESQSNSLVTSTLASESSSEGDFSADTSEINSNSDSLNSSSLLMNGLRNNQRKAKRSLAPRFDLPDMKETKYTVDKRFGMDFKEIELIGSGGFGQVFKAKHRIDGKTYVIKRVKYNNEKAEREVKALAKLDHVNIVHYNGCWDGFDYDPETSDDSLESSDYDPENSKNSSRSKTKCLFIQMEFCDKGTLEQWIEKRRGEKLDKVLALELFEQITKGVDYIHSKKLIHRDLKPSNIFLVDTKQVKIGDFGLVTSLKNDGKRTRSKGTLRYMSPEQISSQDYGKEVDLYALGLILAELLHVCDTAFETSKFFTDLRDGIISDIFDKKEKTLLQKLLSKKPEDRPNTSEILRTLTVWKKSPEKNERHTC

Biological target: GST-SUMO1 (UniProt P63165)
Experiment: pull-down; GST or GST-SUMO1 as bait; [35S]methionine-labeled in vitro-translated PKR WT, C-terminus or mutants as prey; autoradiography; only the target purified

| Substance | binding |
| --- | --- |
| PKR-SIM163, PKR mutant in the SIM-163, in vitro-translated (from UniProt P19525 1-551) (enzyme) | binds |
| PKR-SIM102, PKR mutant in the SIM-102, in vitro-translated (from UniProt P19525 1-551) (enzyme) | binds |
| C-terminus of PKR (amino acids 266-550), [35S]methionine-labeled, in vitro-translated (from UniProt P19525 266-550) (domain or fragment) | no binding |
| PKR-WT, [35S]methionine-labeled in vitro-translated PKR protein (from UniProt P19525 1-551) (enzyme) | binds |
